According to paper PMC12645055:
No constants are given. Whether binding was seen depends on the method and setting. In cells and extracts the contact can be indirect. Here binding means that the protein was enriched with, or labelled near, the bait; the list need not be complete. Where a sequence is shown, tags or fusion partners need not be part of it.

The chains behind the UniProt entries cited, without tags or fusion partners.
UniProt P50552: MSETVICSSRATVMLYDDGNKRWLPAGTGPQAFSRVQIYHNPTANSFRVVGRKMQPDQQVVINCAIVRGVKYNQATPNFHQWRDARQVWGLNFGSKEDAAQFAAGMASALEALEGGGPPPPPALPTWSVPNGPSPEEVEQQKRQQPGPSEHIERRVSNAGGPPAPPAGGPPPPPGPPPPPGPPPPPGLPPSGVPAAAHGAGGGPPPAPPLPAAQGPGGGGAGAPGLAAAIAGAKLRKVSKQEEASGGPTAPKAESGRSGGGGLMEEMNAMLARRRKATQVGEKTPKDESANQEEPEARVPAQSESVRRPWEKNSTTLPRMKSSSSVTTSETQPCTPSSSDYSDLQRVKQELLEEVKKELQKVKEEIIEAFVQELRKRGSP

Molecular target: T1, FLAG-EMP1 (UniProt P54849)
T1 sequence: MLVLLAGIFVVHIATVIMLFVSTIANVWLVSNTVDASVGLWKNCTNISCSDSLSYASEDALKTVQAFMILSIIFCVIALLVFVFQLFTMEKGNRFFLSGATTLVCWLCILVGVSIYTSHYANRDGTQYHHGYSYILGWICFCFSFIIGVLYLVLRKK
Experiment: affinity purification with mass spectrometry; AsPC-1 overexpressing FLAG-EMP1; protein purified by anti-FLAG antibody, silver-stained SDS-PAGE, differing gel regions excised and analysed by LC-MS/MS; IgG as control

- binding: binds
Substance: VASP (from UniProt P50552 1-380)
